# Experiments:
# primary human PTCs [1] = type: cell-based
# primary human PTCs [2] = type: cell-based; remark: listed apart in the source
# HK-2 cell line = type: cell-based, human
substance,measurement,setting,value
Gentamicin,"Average nephrotoxicity test accuracy, HPTC-A (Single)",primary human PTCs [1],90%
same,"Average nephrotoxicity test accuracy, HPTC-B (Multi)",primary human PTCs [2],100%
same,"Average nephrotoxicity test accuracy, HPTC-B (Single)",primary human PTCs [2],0%
same,"Average nephrotoxicity test accuracy, HK-2 (Multi)",HK-2 cell line,100%
same,"Average nephrotoxicity test accuracy, HK-2 (Single)",HK-2 cell line,90%

# — patent publication US20200309767A1, “HIGH-THROUGHPUT IMAGING-BASED METHODS FOR PREDICTING CELL-TYPE-SPECIFIC TOXICITY OF XENOBIOTICS WITH DIVERSE CHEMICAL STRUCTURES” (priority 2015, published 2020)
